Structures are written as SMILES. The list shows a part of the results. The main result of the screen is listed elsewhere. These columns were measured beside it and carry no call. Most of these compounds were active or inconclusive in the main read-out, so they are no random draw. Words in brackets tell the shape of the fitted curve; partial curves, single points and poor fits give uncertain potencies.

This assay is described as follows: qHTS Assay for Identifying the Cell-Membrane Permeable IMPase Inhibitors. Conditions: CHO-M1 cells, IP1 accumulation, HTRF TR-FRET ratio; measured here: donor channel 620 nm AC50. The source says:
NCGC IMPase Assay Overview
Lithium has been widely used for the treatment of bipolar disorder. But lithium has a narrow therapeutic index and it can cause side effects such as thirst, weight gain, tremor, polyuria and memory problems. Although the mechanism for lithium action in treatment of bipolar disorder is still not fully understood, inhibition of inositol monophosphatase (IMPase) and the subsequent depletion of the inositol pool in living cells have been implicated as the primary therapeutic benefit of lithium therapy. Therefore, a selective IMPase inhibitor with reduced side effects might be a good drug candidate to replace lithium for the treatment of bipolar disorder. Several IMPase inhibitors have been discovered previously. However, they are not suitable for therapeutic use because of their poor cell membrane penetrability or oral bioavailability; the development of new cell-permeable IMPase inhibitors is needed.
IMPase catalyzes the hydrolysis of inositol-1-phosphate (IP1) to release free inositol. Binding of an agonist to a Gq coupled GPCR results in the activation of PLC, which hydrolyzes the PIP2 to form inositol-1,4,5-trisphosphate (IP3) and diacyl glycerol (DAG). While DAG activates protein kinase C (PKC), IP3 triggers the elevation of intracellular free Ca2+. The IP3 is very rapidly inactivated by hydrolysis to IP2, IP1 and then inositol by a series of enzymes including IMPase. Free inositols are used for synthesis of PI and thus start another inositol cycle.
To identify new cell-permeable IMPase inhibitors, we developed a cell-based IMPase assay in which the cytosolic IP1 is measured by a time-resolved fluorescence resonance energy transfer (TR-FRET) assay. In this assay, an IP1 specific antibody is used to detect the labeled IP1 tracer. When the cell lysate contains the elevated IP1 due to the inhibition of IMPase, the TR-FRET between the labeled antibody and IP1 tracer is disrupted resulting in a reduction in the total signal. Since the TR-FRET is used, this cell-based assay is a homogenous assay without cell wash and medium change that is suitable for assay miniaturization and HTS.
NCGC IMPase Assay Protocol Summary
A Chinese hamster ovary (CHO) cell line stably expressing the M1 receptor (CHO-M1) was obtained from ATCC and maintained in F-12 Kaighn's media (Invitrogen, Carlsbad, CA, 21127) supplemented with 10 % FBS, 100 units/ml penicillin, 100 ug/ml streptomycin and 250 ug/ml geneticin at 37C, 5% CO2 in a humidified atmosphere. Before the assay, aliquots of cells were frozen and stored at -135C. The assay was performed in 1536-well format. Data are reported for both the ratio of the two emission wavelengths, and also for the component 'donor' channel, Em2=620. […] AC50 values were determined from concentration-response data modeled with the standard Hill equation.
IMPase 1536-well assay protocol:
(1) Plate 4 ul/well (2000 cells) of cell suspension from frozen CHO-M1 Cells in white, tissue culture treated 1536-well plates that are cultured at 37C, 5 % CO2 for 16 to 30 hours.
(2) Add 23 nl/well of compound in DMSO solution. The final titration for each compound was between 0.6 nM and 46 uM.
(3) Add 1 ul of carbachol (50 uM in stimulation buffer containing10mM HEPES, 1mM CaCl2, 0.5 mM MgCl2, 4.2 mM KCl, 146 mM NaCl, 5.5 mM glucose, 50mM LiCl, pH 7.4.
(4) Incubation at 37C, 5 % CO2 for 30 min.
(5) Add 1 ul/well of d2-conjugated IP1 (d2-IP1) and 1 ul/well of Eu+ cryptate conjugated anti-IP1 antibody (Eu+-Ab) prepared in the cell lysis buffer, both from the IP-One kit (Cisbio, MA).
(6) Incubate at room temperature for 10 minutes.
(7) Detect the assay plate (Ex = 320, Em1 =665 and Em2 620) in a ViewLux plate reader.
inositol monophosphatase, IMPase, IMPase inhibitor, lithium, bipolar disorder, IP-One, HTRF, qHTS, NIH roadmap, NCGC
Note: In the gene ID and protein GI references for this assay, rat IMPase is referenced instead of hampster as hamster accession numbers were not available.
(qHTS replaces the single test concentration by a dilution series.)
Regarding `CC1=C(C#N)C(NC(=O)c2ccco2)(C(F)(F)F)C(=O)N1` (configuration not stated), the AC50 was 1.58 µM [falling, partial curve, poor fit].

Consider `Cc1cc(C)nc(NS(=O)(=O)c2ccc(N/C=C3\CCCC3=O)cc2)n1`, for which the AC50 was 0.0251 µM [falling, full curve, poor fit].

`CCOC1(OCC)N=C(N)C2(C#N)C(c3ccc(NC(C)=O)cc3)C12C#N` (configuration not stated): the AC50 is 0.794 µM [rising, single point].

For `C=CCNC(=O)/C(C#N)=C/c1cn(-c2ccccc2)nc1-c1ccc(OC)c([N+](=O)[O-])c1`, the AC50 was 3.98 µM [rising, partial curve].

In the case of `Cc1cc(C)n(CCc2nc(-c3cccs3)cs2)n1`, the half-maximal activity concentration (AC50) is 5.01 µM [falling, partial curve].

As to `COc1cc(C2=NOC(C(=O)Nc3ccc(C)cc3)C2)cc(OC)c1OC` (configuration not stated), the AC50 was 3.16 µM [rising, full curve].

For `CCOC(=O)C1CCCN(C(=O)CCNS(=O)(=O)c2ccc3c(c2)CCC(=O)N3)C1` (configuration not stated), the AC50 was 3.98 µM [rising, full curve, poor fit].

On to `COc1ccc(-n2c(SCC(=O)NCCC(C)C)nc3ccsc3c2=O)cc1`, for which the AC50 was 0.0316 µM [rising, partial curve, poor fit].

Regarding `Cc1ccc(-c2c3c(=O)n(C)c(=O)n(C)c3c3cnc4ccccc4n23)cc1`, the AC50 was 12.6 µM [falling, partial curve].

With `Clc1ccc(Cn2cccc2C2=NCCO2)cc1`, the half-maximal activity concentration (AC50) is 31.6 µM [falling, single point].

`Cc1ccc(-c2nnc(SCC(=O)NCc3ccccc3)o2)cc1`: the AC50 was 35.5 µM [rising, single point].

Consider `CCOC(=O)C1C2C=CC3(CN(Cc4cccs4)C(=O)C13)O2` (configuration not stated), for which the half-maximal activity concentration (AC50) is 7.94 µM [falling, partial curve, poor fit].

With `O=C(COc1ccccc1)c1cn(CC(=O)N2CCOCC2)c2ccccc12`, the concentration at half-maximal activity (AC50) was 6.31 µM [rising, single point].

`COc1ccc(-c2nc3c(=O)n(C)c(=O)[nH]c3n2CCc2ccccc2)cc1`: the AC50 is 0.0126 µM [falling, full curve, poor fit].

As to `CNC(=O)CSc1nnc(-c2ccco2)n1-c1ccccc1OC`, the half-maximal activity concentration (AC50) was 0.00398 µM [falling, full curve, poor fit].

`O=C(Nc1ccc(CCC(=O)N2CCCC2)cc1)c1ncn[nH]1`: the half-maximal activity concentration (AC50) is 0.158 µM [rising, full curve, poor fit].

For `CC1=C(C#N)C(NC(=O)c2ccccc2)(C(F)(F)F)C(=O)N1` (configuration not stated), the half-maximal activity concentration (AC50) is 0.282 µM [falling, full curve, poor fit].

For `NS(=O)(=O)c1ccc(N2N=C(c3ccc(Br)cc3)CC2c2ccc(F)cc2)cc1` (configuration not stated), the AC50 was 11.2 µM [rising, single point].

Turning to `CN1C2CCC1/C(=C\c1ccccc1Cl)C(=O)/C2=C\c1ccccc1Cl`, the concentration at half-maximal activity (AC50) is 5.62 µM [falling, partial curve, poor fit].

Take `Cc1ccnc(NS(=O)(=O)c2ccc(NC(=O)c3ccc(C)c(C)c3)cc2)n1`: the AC50 was 2.24 µM [falling, partial curve].

`Cc1ccc(-c2n[nH]c(=S)n2/N=C/C=C\c2ccccc2[N+](=O)[O-])cc1`: the concentration at half-maximal activity (AC50) is 12.6 µM [falling, partial curve].

Regarding `NC1=NC2(CCCCC2)N(c2ccc(F)cc2)C(N)=N1`, the AC50 is 1 µM [falling, full curve].

Consider `OC(COc1ccc2ccccc2c1)Cn1cncn1` (configuration not stated), for which the AC50 is 6.31 µM [rising, single point].

As for `O=C(O)c1cc(NC(=O)C2CCCO2)cc(NC(=O)C2CCCO2)c1` (configuration not stated), the AC50 is 0.0224 µM [falling, full curve, poor fit].

Take `CCN(CCCNC(=O)CNC(=O)Cn1cnc2ccccc2c1=O)c1cccc(C)c1`: the AC50 was 0.112 µM [falling, full curve].

On to `COC(=O)c1ccc(Cn2cnc3c(cnn3-c3ccc(F)cc3)c2=O)o1`, for which the AC50 is 6.31 µM [rising, partial curve].

As to `CCOC(=O)c1sc(NC(=O)c2ccc3ncsc3c2)nc1C`, the half-maximal activity concentration (AC50) is 31.6 µM [rising, single point].

Take `Cc1ccc2nc(N3C(=O)C(O)=C(C(=O)c4cc5ccccc5o4)C3c3cccs3)sc2c1` (configuration not stated): the half-maximal activity concentration (AC50) was 12.6 µM [rising, partial curve].

For `Cc1cc(C)c2nc(NC3=NCN(CCN4CCOCC4)CN3)nc(C)c2c1`, the AC50 is 0.0251 µM [rising, full curve, poor fit].

On to `CCCCCCCc1nc2c(=O)n(C)c3ccccc3c2o1`, for which the AC50 is 31.6 µM [rising, single point].

For `O=C(Nc1sc2c(c1C(=O)NC1CCCCC1)CCC2)c1ccco1`, the AC50 was 31.6 µM [falling, single point].

With `N#Cc1c(-c2ccco2)nc(SCC(=O)Nc2cccc(Cl)c2)[nH]c1=O`, the half-maximal activity concentration (AC50) was 12.6 µM [rising, partial curve].

Take `Cc1ccc(N=C2NC(=O)C(CC(=O)O)S2)cc1` (configuration not stated): the AC50 is 3.98 µM [falling, single point].

`CN1C=CC=C/C1=C(\C#N)c1nc2ccccc2[nH]1`: the AC50 is 12.6 µM [falling, partial curve].

On to `CC(C)CC(O)(CC(C)C)C(=O)NNc1ccccc1`, for which the AC50 is 3.16 µM [falling, single point].

Take `CCc1ccc(NC(=O)COc2ccc(F)cc2C(=O)c2cnn(-c3ccccc3)c2)cc1`: the concentration at half-maximal activity (AC50) is 20 µM [rising, single point].

With `Cc1cc(C)n(CC(O)Cn2cnc3c2c(=O)n(C)c(=O)n3C)n1` (configuration not stated), the half-maximal activity concentration (AC50) is 0.0501 µM [rising, full curve, poor fit].

Consider `CCOC(=O)c1nn(-c2ccccc2)c(C#N)c1NC(=O)c1nn(CC)cc1Br`, for which the concentration at half-maximal activity (AC50) is 3.55 µM [rising, single point].

As for `CC(=O)c1sc(Nc2nc3ccc(F)cc3s2)nc1C`, the AC50 was 2.51 µM [rising, partial curve, poor fit].

As to `COc1cc(OC)cc(-c2nc3ccccc3c(=O)o2)c1`, the concentration at half-maximal activity (AC50) was 12.6 µM [falling, single point].

With `O=C(CSc1nnc(Cc2cccs2)n1Cc1ccco1)Nc1cc(Cl)cc(Cl)c1`, the AC50 is 1 µM [rising, full curve, poor fit].

In the case of `N#CC(=C1CCCC1)c1nc(-c2ccccc2O)cs1`, the AC50 is 10 µM [falling, partial curve].

One may read the AC50 as the concentration at which the activity in the assay is half-maximal.

Values taken from PubChem BioAssay AID901 (National Center for Advancing Translational Sciences (NCATS), 2007).
